Source: patent publication US20190153024A1, “NOVEL SALTS AND POLYMORPHS OF SCY-078” (priority 2015, published 2019)
At least one structure is not confirmed: it was looked up by name or label, or the drawing left a doubt.

Assay: Kinetic solubility of trifluoroacetate Types A and B and HCl Type I (alternative procedure: SGF, FaSSIF and FeSSIF alternative media, acetate pH 5.5, phosphate pH 6.0 alternative media)
Details: residual solid by XRPD
Method: An alternative media (“FaSSIF alternative media”) was used to study the trifluoroacetate salts (Type A and B) and the HCl Type I salt. More specifically, the media was prepared by weighing 0.17 g of sodium phosphate monobasic (NaH2PO4, anhydrous), 0.021 g of sodium hydroxide, and 0.31 g of sodium chloride into a 50-mL volumetric flask and was dissolve with approximately 48 mL of purified water. The pH was adjusted to exactly 6.5 using 1 M HCl or 1 M NaOH and diluted to volume with purified water. 0.11 g of SIF powder was then added, stirred and sonicated until all the powder was completely dissolved. The solution was equilibrated for 2 hours at RT before use. The solution can be stored at RT for 48 hours or 4° C. for 7 days and should be equilibrated to RT before use
An alternative media (“FeSSIF alternative media”) was used to study the trifluoroacetate salts (Type A and B) and the HCl Type I salt. More specifically, the media was prepared by transferring 0.41 mL of glacial acid and weighing 0.20 g of sodium hydroxide, 0.59 g of sodium chloride into a 50-mL volumetric flask. This was dissolved with approximately 48 mL of purified water. The pH was adjusted to exactly 5.0 using 1 M HCl or 1 M NaOH and diluted to volume with purified water. 0.56 g of SIF powder was added, stirred and sonicated until all the powder is completely dissolved. The solution can be stored at RT for 48 hours or 4° C. for 7 days and should be equilibrated to RT before use.
Acetate Buffer (pH 5.5) Preparation—The acetate buffer (pH 5.5) used for the trifluoroacetate salts (Type A and B) and the HCl Type I salt was prepared by placing 0.60 g sodium acetate (NaC2H3O2.3H2O) in a 100-mL volumetric flask, adding 3 mL of 2 M acetic acid solution, and then adding purified water to volume.
An alternative media (“phosphate (pH 6.0) alternative media”) was used to study the trifluoroacetate salts (Type A and B) and the HCl Type I salt. More specifically, the media was prepared by dissolving 2.72 g of 0.2 M monobasic potassium phosphate (KH2PO4) in purified water, and diluting with purified water t 100 mL. 0.8 g of 0.2 M sodium hydroxide in purified water was diluted with purified water to 100 mL. Then 50 mL of the 0.2 M monobasic potassium phosphate solution was placed in a 200-mL volumetric flask, 5.6 mL of 0.2 M sodium hydroxide solution was added, and then purified water was added to volume.
The trifluoroacetate salts (Type A and B) and the HCl Type I salt were tested using the following alternative procedure. First, 15 mg, 36 mg or 90 mg solid was weighted into a 4-mL plastic tube, and 3 mL of relevant media was added before leaving the suspension on a rolling incubator (25 r/min). For SCF, 90 mg of solid was used. For FaSSIF, acetate buffer (pH 5.5), and phosphate buffer (pH 6.0), 15 mg solid was used. For FeSSIF, 36 mg of solid was used. 1.0 mL aliquot of the suspension was sampled for centrifugation with the supernatant submitted for HPLC and pH measurement and solid for XRPD characterization at 1 hr, 4 hr and/or 24 hrs.
The solubility of trifluoroacetate Type A, Type B and HCl Type I was measured in SGF at ambient temperature. Approximately 90 mg of solid sample was weighted into a 4-mL centrifuge tube, and 3 mL of SGF buffer was added before leaving the suspension on a rolling incubator (25 r/min). 1.0 mL aliquot of the suspension was sampled for centrifugation (10000 rpm, 3 mins) the supernatant was analyzed by HPLC and pH measurement and solid by XRPD characterization at 1 hr, 4 hr and 24 hrs, respectively.
The solubility of trifluoroacetate Type A, Type B and hydrochloride Type I was measured in the FaSSIF alternative media at ambient temperature. Approximately 15 mg of solid sample was weighted into a 4-mL plastic tube, and 3 mL of the media was added before leaving the suspension on a rolling incubator (25 r/min).

[1] = acetate buffer (pH 5.5), 24 hrs

Measured: Form change

CC(C)[C@@H](C)[C@@]1(C)CC[C@]2(C)[C@H]3CC[C@@H]4[C@@]5(COC[C@]4(C)[C@@H](OC[C@](C)(N)C(C)(C)C)[C@H](n4ncnc4-c4ccncc4)C5)C3=CC[C@@]2(C)[C@@H]1C(=O)O.O=C(O)C(F)(F)F [TFA Type B]
Yes: FaSSIF alternative media, 1 hr | FaSSIF alternative media, 4 hrs | FaSSIF alternative media, 24 hrs | SGF, 1 hr | SGF, 4 hrs | SGF, 24 hrs | acetate buffer (pH 5.5), 4 hrs | [1] | phosphate (pH 6.0) alternative media, 24 hrs

CC(C)[C@@H](C)[C@@]1(C)CC[C@]2(C)[C@H]3CC[C@@H]4[C@@]5(COC[C@]4(C)[C@@H](OC[C@](C)(N)C(C)(C)C)[C@H](n4ncnc4-c4ccncc4)C5)C3=CC[C@@]2(C)[C@@H]1C(=O)O.O=C(O)C(F)(F)F [TFA Type A]
Yes: FeSSIF alternative media, 1 hr | FeSSIF alternative media, 4 hrs | FeSSIF alternative media, 24 hrs | phosphate (pH 6.0) alternative media, 4 hrs

CC(C)[C@@H](C)[C@@]1(C)CC[C@]2(C)[C@H]3CC[C@@H]4[C@@]5(COC[C@]4(C)[C@@H](OC[C@](C)(N)C(C)(C)C)[C@H](n4ncnc4-c4ccncc4)C5)C3=CC[C@@]2(C)[C@@H]1C(=O)O.Cl [SCY-078 HCl Type I]
Yes: acetate buffer (pH 5.5), 4 hrs | [1]
